Reference: PMC12017343, “Extended repertoire of CXC chemokines acting as agonists and antagonists of the human and murine atypical chemokine receptor ACKR2” (Journal of Leukocyte Biology, 2025)

The chains behind the UniProt entries cited, without tags or fusion partners. Where a name states a change or a piece, a line headed by the entry shows the natural chain unless it says otherwise.
UniProt Q99616: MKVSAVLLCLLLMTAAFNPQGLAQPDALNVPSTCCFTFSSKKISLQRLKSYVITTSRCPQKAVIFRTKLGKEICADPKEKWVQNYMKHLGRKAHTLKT

Experiments:
[1] = biological target: T1, human ACKR2 N-terminally fused with the NanoLuc (human) (UniProt O00590); assay: FRET or BRET; NanoBRET competition binding screen: competitor chemokine (100 nM) against LIH222-AZ594 (5 nM for human, 10 nM for mouse ACKR2) on HEK293T cells expressing NanoLuc-ACKR2; 2 h on ice; only the binder purified
T1 sequence: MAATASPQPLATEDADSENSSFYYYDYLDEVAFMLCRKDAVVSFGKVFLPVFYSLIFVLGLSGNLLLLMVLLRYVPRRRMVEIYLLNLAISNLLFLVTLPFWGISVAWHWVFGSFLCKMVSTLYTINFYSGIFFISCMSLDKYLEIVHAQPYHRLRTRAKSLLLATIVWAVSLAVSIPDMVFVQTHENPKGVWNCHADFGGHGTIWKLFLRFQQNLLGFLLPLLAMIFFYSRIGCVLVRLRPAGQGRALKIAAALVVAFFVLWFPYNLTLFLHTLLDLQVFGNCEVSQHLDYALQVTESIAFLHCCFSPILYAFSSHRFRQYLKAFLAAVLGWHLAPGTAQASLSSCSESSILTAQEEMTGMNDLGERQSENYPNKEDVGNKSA

[2] = biological target: T1, human ACKR2 N-terminally fused with the NanoLuc (human); assay: FRET or BRET; NanoBRET competition binding, concentration-response: increasing chemokine (highest 300 nM) against LIH222-AZ594 (5 nM for human, 10 nM for mouse) on HEK293T cells expressing NanoLuc-ACKR2; 2 h on ice; only the binder purified
[3] = biological target: T2, mouse ACKR2 N-terminally fused with the NanoLuc (mouse) (UniProt O08707); assay: FRET or BRET; NanoBRET competition binding screen: competitor chemokine (100 nM) against LIH222-AZ594 (5 nM for human, 10 nM for mouse ACKR2) on HEK293T cells expressing NanoLuc-ACKR2; 2 h on ice; only the binder purified
T2 sequence: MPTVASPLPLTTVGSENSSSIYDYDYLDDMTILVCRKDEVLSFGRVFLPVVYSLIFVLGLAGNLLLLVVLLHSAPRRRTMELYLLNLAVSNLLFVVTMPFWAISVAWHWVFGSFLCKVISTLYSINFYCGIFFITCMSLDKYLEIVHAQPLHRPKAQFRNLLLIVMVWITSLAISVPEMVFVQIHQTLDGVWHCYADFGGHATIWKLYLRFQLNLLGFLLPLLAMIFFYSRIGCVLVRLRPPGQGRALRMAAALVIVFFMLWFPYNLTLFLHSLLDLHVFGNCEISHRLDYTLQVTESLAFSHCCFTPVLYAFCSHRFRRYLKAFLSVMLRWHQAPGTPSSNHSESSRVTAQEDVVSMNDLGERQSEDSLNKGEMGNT

Question: With “human CCL13 (from UniProt Q99616) (ligand)” as the substance, how does the binding [1] read?
Answer: binds

Question: For human CCL14 (ligand), which binding [1] is on record?
Answer: binds

Question: How did the binding [2] turn out when human CXCL5 (ligand) was run?
Answer: binds

Question: And the binding [1]?
Answer: binds

Question: Which binding [3] does the source give for mouse CXCL5 (ligand) here?
Answer: binds

These are yes or no findings as the source states them, for the method shown. Binding seen in cells or lysates may run through a third protein. A result given as binding can be weak or reduced; the word gives no strength. Where a sequence is shown, tags or fusion partners need not be part of it.
